# The other results are listed elsewhere or left out.
# B1: SAG1 (Toxoplasma gondii), P13664 (protein)
# chain: MSVSLHHFIISSGFLTSMFPKAVRRAVTAGVFAAPTLMSFLRCGVMASDPPLVANQVVTCPDKKSTAAVILTPTENHFTLKCPKTALTEPPTLAYSPNRQICPAGTTSSCTSKAVTLSSLIPEAEDSWWTGDSASLDTAGIKLTVPIEKFPVTTQTFVVGCIKGDDAQSCMVTVTVQARASSVVNNVARCSYGADSTLGPVKLSAEGPTTMTLVCGKDGVKVPQDNNQYCSGTTLTGCNEKSFKDILPKLTENPWQGNASSDKGATLTIKKEAFPAESKSVIIGCTGGSPEKHHCTVKLEFAGAAGSAKSAAGTASHVSIFAMVIGLIGSIAACVA
# What was measured:
# Assay in all cases: glycan array binding signal (z-score within array); higher = stronger binding
# Settings in all cases: glycan notation: IUPAC condensed, linker removed
# Fuc(a1-2)[Gal(a1-3)]Gal = target: Fuc(a1-2)[Gal(a1-3)]Gal
# Summary of the method: (§1)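 The Consortium for Functional Glycomics database supplied 3228 glycan arrays, of which those lacking an available protein sequence were dropped. The binding signal, a within-array Z-score, was averaged across arrays of the same protein sequence and across linkers. Negative scores can be read as non-binding.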
# [1] = target: Fuc(a1-2)[Gal(a1-3)]Gal(b1-3)GlcNAc
# Summary of the method: as §1
# [2] = target: Fuc(a1-2)[Gal(a1-3)]Gal(b1-3)GlcNAc(b1-2)Man(a1-3)[Fuc(a1-2)[Gal(a1-3)]Gal(b1-3)GlcNAc(b1-2)Man(a1-6)]Man(b1-4)GlcNAc(b1-4)GlcNAc
# Summary of the method: as §1
# [3] = target: Fuc(a1-2)[Gal(a1-3)]Gal(b1-4)Glc
# Summary of the method: as §1
# [4] = target: Fuc(a1-2)[Gal(a1-3)]Gal(b1-4)GlcNAc
# Summary of the method: as §1
# [5] = target: Fuc(a1-2)[Gal(a1-3)]Gal(b1-4)GlcNAc(b1-2)Man(a1-3)[Fuc(a1-2)[Gal(a1-3)]Gal(b1-4)GlcNAc(b1-2)Man(a1-6)]Man(b1-4)GlcNAc(b1-4)GlcNAc
# Summary of the method: as §1
# [6] = target: Fuc(a1-2)[Gal(a1-3)]Gal(b1-4)[Fuc(a1-3)]GlcNAc
# Summary of the method: as §1
# [7] = target: Fuc(a1-2)[Gal(a1-4)]Gal(b1-4)GlcNAc
# Summary of the method: as §1
# [8] = target: Fuc(a1-2)[GalNAc(a1-3)]Gal
# Summary of the method: as §1
# [9] = target: Fuc(a1-2)[GalNAc(a1-3)]Gal(b1-3)GalNAc(a1-3)[Fuc(a1-2)]Gal(b1-4)GlcNAc
# Summary of the method: as §1
# [10] = target: Fuc(a1-2)[GalNAc(a1-3)]Gal(b1-3)GlcNAc
# Summary of the method: as §1
# [11] = target: Fuc(a1-2)[GalNAc(a1-3)]Gal(b1-3)GlcNAc(b1-2)Man(a1-3)[Fuc(a1-2)[GalNAc(a1-3)]Gal(b1-3)GlcNAc(b1-2)Man(a1-6)]Man(b1-4)GlcNAc(b1-4)GlcNAc
# Summary of the method: as §1
# [12] = target: Fuc(a1-2)[GalNAc(a1-3)]Gal(b1-4)Glc
# Summary of the method: as §1
# [13] = target: Fuc(a1-2)[GalNAc(a1-3)]Gal(b1-4)GlcNAc
# Summary of the method: as §1
# [14] = target: Fuc(a1-2)[GalNAc(a1-3)]Gal(b1-4)GlcNAc(b1-2)Man(a1-3)[Fuc(a1-2)[GalNAc(a1-3)]Gal(b1-4)GlcNAc(b1-2)Man(a1-6)]Man(b1-4)GlcNAc(b1-4)GlcNAc
# Summary of the method: as §1
# [15] = target: Fuc(a1-2)[GalNAc(a1-3)]Gal(b1-4)GlcNAc(b1-3)Gal(b1-4)GlcNAc
# Summary of the method: as §1
# [16] = target: Fuc(a1-2)[GalNAc(a1-3)]Gal(b1-4)GlcNAc(b1-3)Gal(b1-4)GlcNAc(b1-3)Gal(b1-4)GlcNAc
# Summary of the method: as §1
# [17] = target: Fuc(a1-2)[GalNAc(a1-3)]Gal(b1-4)[Fuc(a1-3)]GlcNAc
# Summary of the method: as §1
# [18] = target: Fuc(a1-2)[GalNAc(a1-4)]Gal(b1-4)GlcNAc
# Summary of the method: as §1
# [19] = target: Fuc(a1-2)[GalNAc(b1-3)]Gal
# Summary of the method: as §1
# Fuc(a1-3)GlcNAc = target: Fuc(a1-3)GlcNAc
# Summary of the method: as §1
# [20] = target: Fuc(a1-3)[Gal(b1-4)]Glc6S
# Summary of the method: as §1
# [21] = target: Fuc(a1-3)[Gal(b1-4)]GlcNAc
# Summary of the method: as §1
# [22] = target: Fuc(a1-3)[Gal(b1-4)]GlcNAc(b1-2)Man(a1-3)[Fuc(a1-3)[Gal(b1-4)]GlcNAc(b1-2)Man(a1-6)]Man(b1-4)GlcNAc(b1-4)GlcNAc
# Summary of the method: as §1
# [23] = target: Fuc(a1-3)[Gal(b1-4)]GlcNAc(b1-3)Gal(b1-3)[Fuc(a1-4)]GlcNAc
# Summary of the method: as §1
# [24] = target: Fuc(a1-3)[Gal(b1-4)]GlcNAc(b1-3)GalNAc
# Summary of the method: as §1
# [25] = target: Fuc(a1-3)[Gal(b1-4)]GlcNAc(b1-4)Gal(b1-4)[Fuc(a1-3)]GlcNAc
# Summary of the method: as §1
# [26] = target: Fuc(a1-3)[Gal(b1-4)]GlcNAc(b1-4)Gal(b1-4)[Fuc(a1-3)]GlcNAc(b1-4)Gal(b1-4)[Fuc(a1-3)]GlcNAc
# Summary of the method: as §1
# [27] = target: Fuc(a1-3)[Gal(b1-4)]GlcNAc(b1-6)[Gal(b1-3)GlcNAc(b1-3)]Gal(b1-4)Glc
# Summary of the method: as §1
# [28] = target: Fuc(a1-3)[Gal(b1-4)]GlcNAc6S
# Summary of the method: as §1
binder,measurement,setting,value
B1,glycan array binding signal (z-score),Fuc(a1-2)[Gal(a1-3)]Gal,-0.837
same,glycan array binding signal (z-score),[1],-0.413
same,glycan array binding signal (z-score),[2],0.198
same,glycan array binding signal (z-score),[3],-0.586
same,glycan array binding signal (z-score),[4],-0.112
same,glycan array binding signal (z-score),[5],0.615
same,glycan array binding signal (z-score),[6],0.614
same,glycan array binding signal (z-score),[7],-0.93
same,glycan array binding signal (z-score),[8],0.112
same,glycan array binding signal (z-score),[9],-0.186
same,glycan array binding signal (z-score),[10],-0.071
same,glycan array binding signal (z-score),[11],-0.505
same,glycan array binding signal (z-score),[12],0.144
same,glycan array binding signal (z-score),[13],0.433
same,glycan array binding signal (z-score),[14],0.796
same,glycan array binding signal (z-score),[15],0.883
same,glycan array binding signal (z-score),[16],-0.769
same,glycan array binding signal (z-score),[17],0.496
same,glycan array binding signal (z-score),[18],-0.526
same,glycan array binding signal (z-score),[19],-0.384
same,glycan array binding signal (z-score),Fuc(a1-3)GlcNAc,-0.38
same,glycan array binding signal (z-score),[20],-0.272
same,glycan array binding signal (z-score),[21],-0.026
same,glycan array binding signal (z-score),[22],1.86
same,glycan array binding signal (z-score),[23],-0.232
same,glycan array binding signal (z-score),[24],-0.213
same,glycan array binding signal (z-score),[25],1.12
same,glycan array binding signal (z-score),[26],-0.064
same,glycan array binding signal (z-score),[27],-0.869
same,glycan array binding signal (z-score),[28],-0.043

# Some of the entries so far, with bars between the fields:
binder | measurement | setting | value
B1 | glycan array binding signal (z-score) | [17] | 0.496
same | glycan array binding signal (z-score) | [18] | -0.526

# — the supplement of paper PMC8728848
